According to patent publication US20110136259A1, “IMMUNOASSAY FOR CROSS-REACTING SUBSTANCES” (LIFE TECHNOLOGIES CORPORATION, priority 2007, published 2011):
At least one compound was matched to its structure with a doubt left.

Tests used:
Type in all cases: binding
[1] = test system: Beckmann Access (commercial cortisol immunoassay); assay: Synthetic glucocorticoid cross reactivity in Beckman Access cortisol immunoassay; design: Access Cortisol Value: unit: ng/mL
Description: Initial synthetic glucocorticoid antibody cross reactivity data included LC-MS/MS analysis of patient samples was followed by analysis via the Beckman immunoassay system, and relative cross reactivities were calculated for each of the synthetic glucocorticoids of interest. Cross reactivities were also calculated based on a linearity study of each of the major cross reactive synthetic glucocorticoids to ensure that the values obtained for each were viable. (Table 1).
LC-MS/MS analysis of patient samples was followed by analysis using the Beckman Access (commercial assay), and relative cross reactivities were calculated for each of the synthetic glucocorticoids of interest. Synthetic positive patient samples were then mimicked in stripped serum for cortisol, cortisone and exogenous synthetic glucocorticoids. […] The linear relationship for these systems was examined and illustrated.

[2] = test system: Antibody 7 (clone XM210 from Abcam); assay: Cross reactivity on anti-cortisol antibody microarray, antibody 7; conditions: determined by 2000 ng/mL sample
Source text: (§1) The independent variables, these are x1 and x2 in the model are the various concentrations levels, where x1 is the concentration level of cortisol and x2 is the concentration level of the cross-reactant (in this case either 6AMP or prednisolone). The dependent variable, i.e. the variable that we are trying to predict, is the “apparent” cortisol concentration, which is estimated from the concentration-signal 4 parameter logistic regression model. […] These equations are given by,
In terms of the model β1 is interpreted as the amount that the “apparent” cortisol is increase per ng/ml increase of cortisol and similarly β2 is interpreted as the amount that the “apparent” cortisol is increased per ng/ml increase of cross-reactant. Finally to estimate the percent cross action it is given by:
The antibody concentrations were 125 ug/mL in buffered solutions comprising phosphate-buffered saline (PBS) and 1× Whatman Protein Arraying Buffer. The antibody solutions were applied to the slide surface using a Scienion sciflexarryer S5 piezo printer. The average spot sizes were 150 um. […]
(§2) The micro-array slides were assembled with a superstructure that creates individual wells that surround the sub array (Slide Incubation Chambers, Whatman). […] The intensities of fluorescence associated with each spot was quantified using a micro-array reader such as an Axon 4000B or 4200AL. […]

[3] = test system: Antibody 9 (clone F4P1A3 from EMD Biosciences); assay: Cross reactivity on anti-cortisol antibody microarray, antibody 9; conditions: determined by 2000 ng/mL sample
Source text: as §1
(§3) In terms of the model β1 is interpreted as the amount that the “apparent” cortisol is increase per ng/ml increase of cortisol and similarly β2 is interpreted as the amount that the “apparent” cortisol is increased per ng/ml increase of cross-reactant. Finally to estimate the percent cross action it is given by: […]
as §2
(§4) Subsequently, several cortisol antibodies were synthesized and relative cross reactivities were determined for the synthetic glucocorticoids obtained via the same described the Beckmann system (Tables 4 & 5). […]

[4] = test system: Antibody 10 (clone A29220314P from BiosPacific); assay: Cross reactivity on anti-cortisol antibody microarray, antibody 10; conditions: determined by 2000 ng/mL sample
Source text: as §1, §3, §2, §4

antibody 13 = assay: Cross reactivity on anti-cortisol antibody microarray, antibody 13; conditions: determined by 2000 ng/mL sample
Source text: (§5) This model is used to estimate the cross-reaction percentage. The independent variables, these are x1 and x2 in the model are the various concentrations levels, where x1 is the concentration level of cortisol and x2 is the concentration level of the cross-reactant (in this case either 6AMP or prednisolone). The dependent variable, i.e. the variable that we are trying to predict, is the “apparent” cortisol concentration, which is estimated from the concentration-signal 4 parameter logistic regression model. We fit this model using standard multiple linear regression methods to estimate β1 and β2. These equations are given by,
(§6) In terms of the model β1 is interpreted as the amount that the “apparent” cortisol is increase per ng/ml increase of cortisol and similarly β2 is interpreted as the amount that the “apparent” cortisol is increased per ng/ml increase of cross-reactant. […]
as §2, §4

antibody 17 = assay: Cross reactivity on anti-cortisol antibody microarray, antibody 17; conditions: determined by 2000 ng/mL sample
Source text: as §5, §6, §2, §4

C[C@]12CCC(=O)C=C1CC[C@H]1[C@@H]3CC[C@](O)(C(=O)CO)[C@@]3(C)C[C@H](O)[C@@]12F [SYN-5, Fludrocortisone]
Access Cortisol Value ([1]; Method 1: all synthetics present at 2000 ng/mL, apparent cortisol read by Beckmann Access): 26.2
Percent cross reactivity, Access ([1]; determined by 2000 ng/mL sample): 1%
% Reactivity (Method 2) ([1]; serial dilutions 1:2, 1:4, 1:8 and 1:16, linear analysis evaluation): 1.3%
% Reactivity (Method 1) ([1]; synthetic present at 2000 ng/mL, (cortisol value)/(concentration of analyte) x 100%): 1.31%
Percent cross reactivity, antibody 7 [2]: 68%
Percent cross reactivity, antibody 9 [3]: 3%
Percent cross reactivity, antibody 10 [4]: 3%
Percent cross reactivity, antibody 13 (antibody 13): 67%
Percent cross reactivity, antibody 17 (antibody 17): 3%
